Like-named read-outs stand apart in the source and are kept apart here. The structures given here were assigned with low confidence; some may be wrong.
Key:
[1] = test system: cyclin K–eGFP degradation reporter; assay: Cyclin K reporter stability analysis (dual-color cyclin K–eGFP reporter); type: cell-based, human; settings: source data sheet correlations
[2] = test system: HEK293T cells; assay: Drug sensitivity assay (CellTiter-Glo viability) with or without MLN4924 pretreatment; type: cell-based, human

## CC[C@H](CO)Nc1nc(NCc2ccc(-c3ccccn3)cc2)c2ncn(C(C)C)c2n1
[1]
  DC50: 55 nM
[2]; read-out: Viability EC50, no MLN4924, Supplementary Fig. 5, 72h
  EC50: 456 nM
[2]; read-out: Viability EC50, with MLN4924, Supplementary Fig. 5, 72h, pre-treatment with 100 nM MLN4924
  EC50: 2480 nM

Source: paper PMC10746543, “Design principles for cyclin K molecular glue degraders” (Nature Chemical Biology, 2023)
